At least one compound was matched to its structure with a doubt left.
Target: T1, K-Ras G12S (Homo sapiens, UniProt P01116, G12S)
T1 construct: made in house; host or cells: E. coli, e.g. BL21 (DE3)
Assay: HTRF assay, K-Ras G12S / SOS1 interaction
Type: biochemical
Conditions: IC50 against K-Ras G12D divided by IC50 against K-Ras G12S
From the text: This assay can be also used to assess a selective inhibition or reduction of signaling output of a mutant Ras protein relative to a wildtype, or relative to a different mutant Ras protein. For example, the equilibrium interaction of wildtype Kras or K-Ras mutant (e.g., wildtype or a mutant thereof including those mentioned in Example 6) with SOS1 (e.g., hSOS1) can be assessed as a proxy or an indication for a subject compound's ability to bind and inhibit Ras protein. HTRF assay detects from (i) a fluorescence resonance energy transfer (FRET) donor (e.g., antiGST-Europium) that is bound to GST-tagged K-Ras mutant to (ii) a FRET acceptor (e.g., anti-6His -XL665) bound to a His -tagged hSOS1.
The assay buffer can contain ˜5 mM HEPES pH 7.4, ˜150 mM NaCl, ˜1 mM DTT, 0.05% BSA and 0.0025% (v/v) Igepal. […] A suitable amount of the protein construct will depend on the range of activity or range of IC50 values being detected or under investigation. […]
A fixed volume of DMSO with or without test compound is transferred into a 384-well plate. […] Upon incubation for about 10 minutes or longer, the fluorescence is measured with a M1000Pro plate reader (Tecan) using HTRF detection (excitation 337 nm, emission 1: 620 nm, emission 2: 665 nm). […] Signaling output measured in terms of IC50 values can be obtained, a ratio of IC50 against one mutant relative to another mutant can be calculated. […]

Cc1cn(C(=O)N2C3CCC2CN(c2nc(OC[C@@]45CCCN4C[C@H](F)C5)nc4c(F)c(-c5ccc(F)c6sc(N)c(C#N)c56)c(Cl)cc24)C3)nn1 [Compound A189, 2-amino-4-(6-chloro-8-fluoro-2-(((2R,7aS)-2-fluorotetrahydro-1H-pyrrolizin-7a(5H)-yl)meth-oxy)-4-(8-(4-methyl-1H-1,2,3-triazole-1-carbonyl)-3,8-diaza-bicyclo[3.2.1]octan-3-yl)quin-azolin-7-yl)-7-fluorobenzo[b]-thiophene-3-carbonitrile]
Ratio of IC50 KRAS G12D vs. IC50 KRAS G12S: A (A: indicates that the ratio of IC50 against KrasG12D vs. IC50 against KrasG12S is 1-fold or greater)

Source: US20240368191A1, “HETEROCYCLIC COMPOUNDS AND USES THEREOF” (Kumquat Biosciences Inc., priority 2021, published 2024)
